4 compounds from EP3958980B1, “TARGETED NOVEL TRIAZOLOTHIADIAZINE DERIVATIVES FOR THE TREATMENT OF LUNG CANCER” (Anadolu Universitesi, priority 2020, dated 2021) can be followed below.

The subject of the data set is A549 human lung adenocarcinoma cells. Nature of the data set: MTT assay, in vitro cytotoxic activity on A549. In kind it is cell-based. To be noted: SI= IC50 for CCDLul9 cell line / IC50 for A549 cell line. As for the experimental part: The in vitro cytotoxic effects of the compounds were determined with the MTT assay. For this purpose, MTT test was performed using A549 and CCD-19Lu cell lines. After the cell lines used in the invention were centrifuged following taking them out from liquid nitrogen (-196 °C), the cells were cultured in a CO2 incubator comprising 5% CO2 at 37 °C in flasks containing 10% fetal bovine serum (FBS), where CCD-19Lu cells were cultured with Dulbecco's Modified Eagle's Medium (DMEM) and A549 cells were cultured with Roswell Park Memorial Institute (RPMI). The cells that reach the sufficient number for the assay, were seeded to 96 well plates such that 2×10^3 cells were placed in each well and at the same time, components at concentrations of 1-500 µg/mL were added to cells and they were incubated at 37 °C. At the end of the 24 hour incubation period, the MTT powder (5 mg/mL in 1 × phosphate buffered saline (PBS)) was added to each well (20 µL). After a 2-4 h period under the same conditions, the medium was removed from the plate and 100 µL of DMSO was added to each well to dissolve the dye and kept for 10 minutes. Then the plates were read at a wavelength of 540 nm using ELx808-IU Bio-Tek plate reader. The control cell viability which was not treated with the components was accepted to be 100% and the viability rates of the cells were expressed as %. […] According to the results obtained, the dose range was extended until the IC50 value was determined. MTT assay is a frequently used method which measures the cytotoxic effects of the compounds on the cells by converting the yellow colored MTT stain into purple colored formazan crystals via the mitochondrial succinate dehydrogenase activity. In the cytotoxic activity tests of the compounds, A549 lung adenocarcinoma and CCDLu19 normal lung fibroblast cell lines were used.
Background: Tetrazolium dyes change colour on reduction, which living cells bring about.

Turning to `FC(F)(F)c1ccc(C2=Nn3c(CCc4ccc5c(c4)OCO5)nnc3SC2)cc1` [Compound 11, 3-[2-(1,3-Benzodioxole-5-yl)ethyl]-6-(4-trifluoromethylphenyl)-7H-[1,2,4]triazolo [3,4-b][1,3,4]thiadiazine], the “SI values*” value is given as 155.25.

For the compound `c1ccc(-c2ccc(C3=Nn4c(CCc5ccc6c(c5)OCO6)nnc4SC3)cc2)cc1` [Compound 14, 3-[2-(1,3-Benzodioxole-5-yl)ethyl]-6-(biphenyl-4-yl)-7H-[1,2,4]triazolo[3,4-b] [1,3,4]thiadiazine], the “SI values*” value was found to be 24.71.

Turning to `Fc1cccc(C2=Nn3c(CCc4ccc5c(c4)OCO5)nnc3SC2)c1` [Compound 12, 3-[2-(1,3-Benzodioxole-5-yl)ethyl]-6-(3-fluorophenyl)-7H-[1,2,4]triazolo [3,4-b] [1,3,4]thiadiazine], the “SI values*” value came to 42.91.

`CS(=O)(=O)c1ccc(C2=Nn3c(CCc4ccc5c(c4)OCO5)nnc3SC2)cc1` [Compound 9]: the “SI values*” value is on record as 17.68.
